Reference: PMC7819943, “Rice protein-binding microarrays: a tool to detect cis-acting elements near promoter regions in rice”
This is one part of the list.

molecular target: T1, OsSMF1 (Oryza sativa, UniProt Q6ZLB0 1-436); assay: protein-binding microarray (RPBM); PBS, 2% BSA, 51.3 ng/ul salmon testes DNA, 50 uM zinc acetate, 200 nM TF, 25 C, 1 h; high values mean tight binding; conditions: protein: recombinant; tags: N-terminal polyhistidine and DsRed monomer fusion (pET32a); chain copies: 2; label: CyDye5-dUTP incorporated in the synthesized complementary strand; 3' TTTTT single-stranded linker to array surface; dsDNA, one strand shown
T1 sequence: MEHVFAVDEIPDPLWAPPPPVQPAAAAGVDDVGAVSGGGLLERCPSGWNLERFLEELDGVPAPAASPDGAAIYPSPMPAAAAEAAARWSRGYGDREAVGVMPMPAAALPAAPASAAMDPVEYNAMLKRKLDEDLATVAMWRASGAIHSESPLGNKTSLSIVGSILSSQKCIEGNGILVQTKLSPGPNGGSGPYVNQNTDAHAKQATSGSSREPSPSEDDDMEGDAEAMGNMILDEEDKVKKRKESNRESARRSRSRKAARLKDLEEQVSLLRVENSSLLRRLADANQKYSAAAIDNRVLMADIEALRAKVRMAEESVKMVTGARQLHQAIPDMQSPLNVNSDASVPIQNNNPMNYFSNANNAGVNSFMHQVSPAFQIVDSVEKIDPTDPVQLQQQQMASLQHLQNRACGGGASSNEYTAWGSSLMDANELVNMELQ
How it was run: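 For the binding signal, per-feature fluorescence intensity was read in arbitrary units on an Axon 4000B scanner. Before scanning, a 2% BSA-blocked custom Agilent array made double-stranded with Cy5-dUTP was washed after 1 h at 25 °C with 200 nM protein and 50 µM zinc acetate. The proteins were Ni–NTA-purified transcription factors with N-terminal polyhistidine and DsRed fusions, expressed in E. coli BL21-CodonPlus.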

Sequence	binding signal
AGTTAATTATGTGCCGGTCCCCGCTGTTGTCCACCATCCGCGGAGTCACCTAGTGCAG	3880 fluorescence intensity (a.u.)
CGTTCCTTCTCATCAGTTTGGCTAAGATTTGGGACCGACCCGGAGTCACCTAGTGCAG	3420 fluorescence intensity (a.u.)
AAGCAACTCAGCGTGCTAACTTTGGCTGAGTCAACCAAGGCGGAGTCACCTAGTGCAG	4040 fluorescence intensity (a.u.)
TGCTGAGTGAGTGATGAGTGTGCGAATGTGTGATCGATCGCGGAGTCACCTAGTGCAG	3860 fluorescence intensity (a.u.)
CAGCGACACTAAGGCCGCCGCCACCGCCGCCTCCCGCGAGCGGAGTCACCTAGTGCAG	3170 fluorescence intensity (a.u.)
TCTCCTCCTCCTCTCCGCCACCTCGTCTCGTCTCCCCTCCCGGAGTCACCTAGTGCAG	3320 fluorescence intensity (a.u.)
TATGAGGGTATCAGGGTCGTTGAGGTCTCTCCTCCTACACCGGAGTCACCTAGTGCAG	41000 fluorescence intensity (a.u.)
TGGGACCCACACTGACCTCTCACTCACCGCCAGTTGGCCCCGGAGTCACCTAGTGCAG	3350 fluorescence intensity (a.u.)
GTCACGCACGACTCCCATTTATCACGGTCACGCGAGCCCCCGGAGTCACCTAGTGCAG	3570 fluorescence intensity (a.u.)
GTTCGTAGGGGTAGGATTTGCATGCGTGTATTTGTAGGGGCGGAGTCACCTAGTGCAG	4560 fluorescence intensity (a.u.)
CGACGCCGACCTCATGGCCCGCGCCACCACCACCCGCGCCCGGAGTCACCTAGTGCAG	4360 fluorescence intensity (a.u.)
TCAAGTGTGTTCTATAAACGACACATCATCCACGTACTGACGGAGTCACCTAGTGCAG	10200 fluorescence intensity (a.u.)
TTTGGATTGGCCAGAACAAGATATACTTTCGAATCTTTTGCGGAGTCACCTAGTGCAG	32200 fluorescence intensity (a.u.)
CGCTCCATGAAAGTGATAGCAGTGACTTGTCCACACAGGTCGGAGTCACCTAGTGCAG	3240 fluorescence intensity (a.u.)
TTCTAGCCTATTTTAAATCCCATGCAAGCATAACATATTACGGAGTCACCTAGTGCAG	4540 fluorescence intensity (a.u.)
TCGTCGCCACCACCACCACCGCCGTTGCCACTAATCCGCCCGGAGTCACCTAGTGCAG	3700 fluorescence intensity (a.u.)
GCTAATAGGATACACTGATTAGGAGAACAATATGGCACAACGGAGTCACCTAGTGCAG	22600 fluorescence intensity (a.u.)
TCTGAGGTTGCTTGCTGATTCACAGGTCGATCGTGTTGCTCGGAGTCACCTAGTGCAG	6190 fluorescence intensity (a.u.)
AAATCACTCCGTGACTCACACGGCAAACTTTTGTCAATTACGGAGTCACCTAGTGCAG	5320 fluorescence intensity (a.u.)
GGCCACTCCTCCACGCACACACCTCTCTCTCTCTCTCTCTCGGAGTCACCTAGTGCAG	4390 fluorescence intensity (a.u.)
TCCAGTAACCACTCGAATACTGACAAACCAGCATCTCGTTCGGAGTCACCTAGTGCAG	5090 fluorescence intensity (a.u.)
CGGCCCCGGCGCGCGTCGGCATGTGACGTCCCACGTGCGCCGGAGTCACCTAGTGCAG	6620 fluorescence intensity (a.u.)
TGCGTGTCTATTATACTACGTCATAGCGACCGCCAAAATACGGAGTCACCTAGTGCAG	3610 fluorescence intensity (a.u.)
TATCGCCTATCGTCCTCCGCTATGGGTTGTCATCCCCTAGCGGAGTCACCTAGTGCAG	3740 fluorescence intensity (a.u.)
CCACAAACGTGGCAAAGATTGACACCGAATCTCTGACGTGCGGAGTCACCTAGTGCAG	4280 fluorescence intensity (a.u.)
ACGGGAAGCTGCTAGTTTGTGATATTCTTGTTCTACCTAACGGAGTCACCTAGTGCAG	3220 fluorescence intensity (a.u.)
CTCTCTCTCTCTCTGTTGTGTCAGTGTGTGTGCGTGGCTTCGGAGTCACCTAGTGCAG	5180 fluorescence intensity (a.u.)

2 entries from above, reformatted.
Sequence,binding signal
GCTAATAGGATACACTGATTAGGAGAACAATATGGCACAACGGAGTCACCTAGTGCAG,22600 fluorescence intensity (a.u.)
TCCAGTAACCACTCGAATACTGACAAACCAGCATCTCGTTCGGAGTCACCTAGTGCAG,5090 fluorescence intensity (a.u.)

Later entries

Sequence	binding signal
CGCAGGGGAAGTCGCGGAGGCCCGTGAACAGGTGGGCGAGCGGAGTCACCTAGTGCAG	3460 fluorescence intensity (a.u.)
GCAGGTGCCAACGAATATTATGACTCACAATAGTACACTGCGGAGTCACCTAGTGCAG	5890 fluorescence intensity (a.u.)
TGTATTTTCTGACGTTGGTAGCACGGTAGCACCCGATATTCGGAGTCACCTAGTGCAG	4250 fluorescence intensity (a.u.)
CACCCGTTTCCGACGGCGATGGCGAGACCCCGTGTCGCCGCGGAGTCACCTAGTGCAG	3710 fluorescence intensity (a.u.)
GTAGCGGCTGCGGCGCTCCAGCTCCTCGGAGGCCCGGTCCCGGAGTCACCTAGTGCAG	3790 fluorescence intensity (a.u.)
CGCCCTCGCTTCCTCTCCTGGATCGAGATCGCGTCATCGCCGGAGTCACCTAGTGCAG	4900 fluorescence intensity (a.u.)
GGTCGTATGATGTAAGATCCAGGAAATTGTTCTTGTTGCCCGGAGTCACCTAGTGCAG	3160 fluorescence intensity (a.u.)
AATCCTACGTCTCCAATCCTACGTGTGAAATCATCCGGATCGGAGTCACCTAGTGCAG	7120 fluorescence intensity (a.u.)
AAAACTTGCAACTGCAATTCATGTCAATTTGCCACATCACCGGAGTCACCTAGTGCAG	13200 fluorescence intensity (a.u.)
AATATTGTTAACCCTATGACGTTGCATGTGGATTTTGCTGCGGAGTCACCTAGTGCAG	10100 fluorescence intensity (a.u.)
AGAAATCAATGACAAAACATTTGTACCGGAGGCGGTAATACGGAGTCACCTAGTGCAG	3220 fluorescence intensity (a.u.)
TCTAAAGAAATTTTCTCTGTCAATAGATGATTCCATCACCCGGAGTCACCTAGTGCAG	6070 fluorescence intensity (a.u.)
AAACAAGCACAACGTTTAGCCACGTCATCAAAATAGTTTCCGGAGTCACCTAGTGCAG	17700 fluorescence intensity (a.u.)
AGCACTGCCCACACTGCCAAAATATGCCATATGTTATCCTCGGAGTCACCTAGTGCAG	3220 fluorescence intensity (a.u.)
GGACTCAGCGTCGCCGCTCCTTGGGCCACGTCAGCGCTCACGGAGTCACCTAGTGCAG	35600 fluorescence intensity (a.u.)
GCACAGCCTCACAGGACGAGCCGCCGCTCACCGCCGGCACCGGAGTCACCTAGTGCAG	23300 fluorescence intensity (a.u.)
GTGCGTGGGTGCGTGACTGCGTATAGGGGCCACGACCCGCCGGAGTCACCTAGTGCAG	3180 fluorescence intensity (a.u.)
GAATTACATTGCATTGTTCGTTAAAGAGTAGATTCATACACGGAGTCACCTAGTGCAG	29200 fluorescence intensity (a.u.)
CATCAATTCAAGTAGATTCAAACATAGAGTGGAATTGGACCGGAGTCACCTAGTGCAG	32000 fluorescence intensity (a.u.)
CGTACTCACCACCTGCCCCTTGTCATCGTCCTCCTCAAGGCGGAGTCACCTAGTGCAG	4190 fluorescence intensity (a.u.)
AGTAGCGGCGTGTACATGCGCCAACTGCCCACGCGGCCGCCGGAGTCACCTAGTGCAG	4510 fluorescence intensity (a.u.)
TGTACGCCACTTAATTTTGCTCGTAACATACATTGACAATCGGAGTCACCTAGTGCAG	3160 fluorescence intensity (a.u.)
CATTTCATATCAGAAGTGTGATCACTGTAACCCGCGGCGCCGGAGTCACCTAGTGCAG	64500 fluorescence intensity (a.u.)
GGCCGTGACGGCGTGTCGTCCGCGTGTGCGCGCGATATCTCGGAGTCACCTAGTGCAG	5080 fluorescence intensity (a.u.)
GAGTCAGGTAGACGCGCCGCGGCGTGGCACGGAGGAGACACGGAGTCACCTAGTGCAG	3300 fluorescence intensity (a.u.)
CGCATCCACTGCGGCGCGTCCACGCGTACGCCGCGGCAGCCGGAGTCACCTAGTGCAG	5740 fluorescence intensity (a.u.)
ACATAATAGACTATTAGAGCACCCGCAATAGTAAAGTAAGCGGAGTCACCTAGTGCAG	23000 fluorescence intensity (a.u.)
